Reference: article PMC7784283
Results are given in words; binding and its absence hold for the method and conditions named. Binding seen in cells or lysates may run through a third protein. Some results given as binding are weak or reduced against the parent protein; the word gives no strength. For part of these data: Tags and fused reporters may be left off the sequences shown.

The chains behind the UniProt entries cited, without tags or fusion partners. Residues count along the entry.
UniProt P16671: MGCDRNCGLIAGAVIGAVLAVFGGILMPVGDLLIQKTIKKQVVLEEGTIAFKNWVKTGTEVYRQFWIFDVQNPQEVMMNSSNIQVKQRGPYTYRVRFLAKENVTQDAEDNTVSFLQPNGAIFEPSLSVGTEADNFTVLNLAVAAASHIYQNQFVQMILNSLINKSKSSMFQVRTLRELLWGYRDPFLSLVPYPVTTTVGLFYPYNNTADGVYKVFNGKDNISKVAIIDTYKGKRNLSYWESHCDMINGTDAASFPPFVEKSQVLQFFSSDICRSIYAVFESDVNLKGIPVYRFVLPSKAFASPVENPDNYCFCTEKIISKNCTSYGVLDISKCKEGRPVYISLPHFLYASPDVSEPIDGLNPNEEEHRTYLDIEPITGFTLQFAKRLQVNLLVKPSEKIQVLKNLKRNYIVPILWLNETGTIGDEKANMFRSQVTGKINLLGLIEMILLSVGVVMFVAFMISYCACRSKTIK
UniProt Q08857: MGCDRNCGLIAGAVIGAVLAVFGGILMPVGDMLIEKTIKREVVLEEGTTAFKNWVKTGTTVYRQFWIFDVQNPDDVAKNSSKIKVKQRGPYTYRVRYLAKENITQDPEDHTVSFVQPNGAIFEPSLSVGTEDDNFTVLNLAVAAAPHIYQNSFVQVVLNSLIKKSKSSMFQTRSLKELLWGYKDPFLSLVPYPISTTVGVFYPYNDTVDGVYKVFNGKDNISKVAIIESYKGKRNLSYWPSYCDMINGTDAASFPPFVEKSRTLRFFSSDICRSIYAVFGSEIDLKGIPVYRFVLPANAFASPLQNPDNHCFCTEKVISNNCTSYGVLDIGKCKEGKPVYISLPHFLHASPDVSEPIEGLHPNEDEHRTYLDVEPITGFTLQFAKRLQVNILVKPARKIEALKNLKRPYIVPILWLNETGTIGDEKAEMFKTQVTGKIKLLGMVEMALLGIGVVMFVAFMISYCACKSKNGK
UniProt Q9Y336, residues 18-463: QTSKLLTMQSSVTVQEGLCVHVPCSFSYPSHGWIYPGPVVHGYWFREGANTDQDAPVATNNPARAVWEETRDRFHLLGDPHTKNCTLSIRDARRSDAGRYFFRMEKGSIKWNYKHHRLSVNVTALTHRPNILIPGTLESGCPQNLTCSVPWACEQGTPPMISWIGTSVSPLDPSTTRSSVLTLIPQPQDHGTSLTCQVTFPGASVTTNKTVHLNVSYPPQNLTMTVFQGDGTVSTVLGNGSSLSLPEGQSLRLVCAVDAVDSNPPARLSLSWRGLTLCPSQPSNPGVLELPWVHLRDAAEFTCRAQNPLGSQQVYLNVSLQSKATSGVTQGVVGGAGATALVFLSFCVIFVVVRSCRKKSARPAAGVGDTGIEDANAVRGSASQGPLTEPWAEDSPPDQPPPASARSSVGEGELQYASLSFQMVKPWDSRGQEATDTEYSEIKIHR
UniProt P29351: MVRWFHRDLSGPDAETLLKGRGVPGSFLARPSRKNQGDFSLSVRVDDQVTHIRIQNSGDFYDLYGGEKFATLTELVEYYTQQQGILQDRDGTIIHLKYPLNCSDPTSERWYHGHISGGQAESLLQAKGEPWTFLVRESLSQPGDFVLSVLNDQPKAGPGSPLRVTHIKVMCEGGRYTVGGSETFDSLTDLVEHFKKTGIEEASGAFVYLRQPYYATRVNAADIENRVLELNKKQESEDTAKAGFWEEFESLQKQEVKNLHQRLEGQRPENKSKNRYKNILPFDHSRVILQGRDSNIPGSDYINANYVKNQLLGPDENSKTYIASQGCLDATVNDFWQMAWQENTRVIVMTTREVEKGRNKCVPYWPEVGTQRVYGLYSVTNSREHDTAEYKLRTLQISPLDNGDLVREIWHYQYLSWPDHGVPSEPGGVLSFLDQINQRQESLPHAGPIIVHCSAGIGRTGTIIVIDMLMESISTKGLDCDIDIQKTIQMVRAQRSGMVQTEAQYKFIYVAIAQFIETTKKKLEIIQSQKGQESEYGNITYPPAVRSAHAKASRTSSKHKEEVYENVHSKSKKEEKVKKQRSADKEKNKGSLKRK

How the values were obtained:
[1] = molecular target: N-terminal HA-tagged human CD36 (HA-CD36) (human) (UniProt P16671); assay: co-IP; HEK293T cells co-transfected with Flag-Siglec-9 and HA-CD36 for 48 h, without or with sialidase for 30 min; lysate precipitated with anti-HA affinity resin; blot
[2] = molecular target: T1, Siglec-E (endogenous, peritoneal macrophages) (mouse (endogenous in peritoneal macrophages)) (UniProt Q91Y57); assay: co-IP; endogenous proteins; lysates of WT mouse peritoneal macrophages treated without or with sialidase 0.1 unit/ml for 30 min; precipitated with control IgG, anti-Siglec-E or anti-CD36 antibody, 18 h, 4 °C, protein A/G magnetic beads; blot
T1 sequence: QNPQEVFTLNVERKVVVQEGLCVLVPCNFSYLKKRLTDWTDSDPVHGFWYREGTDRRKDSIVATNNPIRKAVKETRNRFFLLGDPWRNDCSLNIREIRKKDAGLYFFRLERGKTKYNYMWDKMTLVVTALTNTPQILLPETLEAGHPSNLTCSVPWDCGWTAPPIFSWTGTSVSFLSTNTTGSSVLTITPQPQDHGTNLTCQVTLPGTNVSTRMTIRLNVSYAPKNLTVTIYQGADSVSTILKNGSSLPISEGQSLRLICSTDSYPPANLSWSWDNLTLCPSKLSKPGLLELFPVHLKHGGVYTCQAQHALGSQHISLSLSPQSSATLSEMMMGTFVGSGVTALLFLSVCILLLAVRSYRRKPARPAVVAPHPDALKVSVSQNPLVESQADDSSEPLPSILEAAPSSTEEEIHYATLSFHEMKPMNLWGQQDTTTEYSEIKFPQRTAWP

[3] = molecular target: T1, Siglec-E (endogenous, peritoneal macrophages) (mouse (endogenous in peritoneal macrophages)); assay: co-IP; endogenous proteins; lysates of peritoneal macrophages (WT; for VAV also SE-/-) treated with oxLDL 50 µg/ml for indicated times; precipitated with anti-Siglec-E or anti-VAV antibody; blot and densitometry
[4] = molecular target: N-terminal Flag tagged mouse CD36 (Flag-CD36) (mouse) (UniProt Q08857); assay: co-IP; HEK293T cells co-transfected with Flag-CD36 and WT or mutant HA-SE; lysate (1% Triton X-100, 0.1% SDS, 150 mM NaCl) precipitated with anti-FLAG M2 affinity resin, 2 h, 4 °C; blot; also after P-3FAX-Neu5Ac 200 µM for 66 h or sialidase 0.1 unit/ml for 30 min
[5] = molecular target: CD36 (endogenous, peritoneal macrophages) (mouse (endogenous in peritoneal macrophages)) (UniProt Q08857); assay: co-IP; endogenous proteins; lysates of WT mouse peritoneal macrophages treated without or with sialidase 0.1 unit/ml for 30 min; precipitated with control IgG, anti-Siglec-E or anti-CD36 antibody, 18 h, 4 °C, protein A/G magnetic beads; blot

**Q.** For “C-terminal Myc-Flag-tagged Siglec-9 (Flag-Siglec-9) (from UniProt Q9Y336 18-463) (receptor)”, which binding [1] is on record?
**A.** The binding was “binds”.

**Q.** For “CD36 (endogenous, peritoneal macrophages) (from UniProt Q08857 1-472) (receptor)”, which binding [2] is on record?
**A.** Its binding is “binds”.

**Q.** How did the binding [3] turn out when “Src homology region 2 domain-containing phosphatase-1 (SHP-1) (from UniProt P29351 1-595) (enzyme)” was run?
**A.** Its binding is “binds”.

B1: C-terminal HA-tagged wild type Siglec-E (HA-SE) (receptor, UniProt Q91Y57 19-467)
chain: QNPQEVFTLNVERKVVVQEGLCVLVPCNFSYLKKRLTDWTDSDPVHGFWYREGTDRRKDSIVATNNPIRKAVKETRNRFFLLGDPWRNDCSLNIREIRKKDAGLYFFRLERGKTKYNYMWDKMTLVVTALTNTPQILLPETLEAGHPSNLTCSVPWDCGWTAPPIFSWTGTSVSFLSTNTTGSSVLTITPQPQDHGTNLTCQVTLPGTNVSTRMTIRLNVSYAPKNLTVTIYQGADSVSTILKNGSSLPISEGQSLRLICSTDSYPPANLSWSWDNLTLCPSKLSKPGLLELFPVHLKHGGVYTCQAQHALGSQHISLSLSPQSSATLSEMMMGTFVGSGVTALLFLSVCILLLAVRSYRRKPARPAVVAPHPDALKVSVSQNPLVESQADDSSEPLPSILEAAPSSTEEEIHYATLSFHEMKPMNLWGQQDTTTEYSEIKFPQRTAWP
**Q.** How did the binding [4] turn out when B1 was run?
**A.** Its binding is “binds”.

B2: sialic acid binding defective mutant of Siglec-E (Siglec-E R126D) with HA-tag (receptor, UniProt Q91Y57 19-467)
chain: QNPQEVFTLNVERKVVVQEGLCVLVPCNFSYLKKRLTDWTDSDPVHGFWYREGTDRRKDSIVATNNPIRKAVKETRNRFFLLGDPWRNDCSLNIREIRKKDAGLYFFDLERGKTKYNYMWDKMTLVVTALTNTPQILLPETLEAGHPSNLTCSVPWDCGWTAPPIFSWTGTSVSFLSTNTTGSSVLTITPQPQDHGTNLTCQVTLPGTNVSTRMTIRLNVSYAPKNLTVTIYQGADSVSTILKNGSSLPISEGQSLRLICSTDSYPPANLSWSWDNLTLCPSKLSKPGLLELFPVHLKHGGVYTCQAQHALGSQHISLSLSPQSSATLSEMMMGTFVGSGVTALLFLSVCILLLAVRSYRRKPARPAVVAPHPDALKVSVSQNPLVESQADDSSEPLPSILEAAPSSTEEEIHYATLSFHEMKPMNLWGQQDTTTEYSEIKFPQRTAWP
**Q.** B2 was tested. Which binding [4] did it give?
**A.** The binding was “binds”.

B3: Siglec-E (endogenous, peritoneal macrophages) (receptor, UniProt Q91Y57 19-467)
chain: QNPQEVFTLNVERKVVVQEGLCVLVPCNFSYLKKRLTDWTDSDPVHGFWYREGTDRRKDSIVATNNPIRKAVKETRNRFFLLGDPWRNDCSLNIREIRKKDAGLYFFRLERGKTKYNYMWDKMTLVVTALTNTPQILLPETLEAGHPSNLTCSVPWDCGWTAPPIFSWTGTSVSFLSTNTTGSSVLTITPQPQDHGTNLTCQVTLPGTNVSTRMTIRLNVSYAPKNLTVTIYQGADSVSTILKNGSSLPISEGQSLRLICSTDSYPPANLSWSWDNLTLCPSKLSKPGLLELFPVHLKHGGVYTCQAQHALGSQHISLSLSPQSSATLSEMMMGTFVGSGVTALLFLSVCILLLAVRSYRRKPARPAVVAPHPDALKVSVSQNPLVESQADDSSEPLPSILEAAPSSTEEEIHYATLSFHEMKPMNLWGQQDTTTEYSEIKFPQRTAWP
**Q.** How did the binding [5] turn out when B3 was run?
**A.** The binding was “binds”.
